# The whole screen tested about 300,000 compounds, of which about 5,400 (1.8%) were called active. The inconclusive results got no clear call from the source; some entries with a clear call stand among them for comparison. The call rests on the fitted dose curve; tested in HEK293 cells. Where the call is inconclusive, the potency comes from a doubtful curve fit.
# Assay: qHTS for inhibitors of binding or entry into cells for Marburg Virus
# Conditions: Marburg virus pseudotyped entry inhibition, cell reporter; activity change, negative = inhibition: at 37.8 µM (top of the series) unless noted
# On the % scale 0 is the no-effect control and ±100 the full control effect; potency means the concentration at half of the fitted maximal effect.
Structure (SMILES),Potency,"activity change, negative = inhibition"
O=C1CNC(=O)N1c1ccc(Cl)cc1,"inconclusive: 3.98 µM [inhibitor, partial curve, poor fit]",
CCn1ncc(/C=C/C(=O)C2CC2)c1C,"inconclusive: 0.316 µM [activator, partial curve, poor fit]",
O=C(CC1C(=O)NCCN1Cc1ccc(F)cc1Cl)NC1CCCCCCC1 (stereo not given),"inconclusive: 35.5 µM [inhibitor, single point]",
COc1ccc(Cl)cc1NC(=O)Cn1c(=O)n(-c2ccc(C)cc2)c(=O)c2ccc(C(=O)NCc3ccccc3Cl)cc21,,inactive: 6.37% [at 46.1 µM]
COC(=O)c1c(NC(C)=O)sc(C(=O)Nc2ccccc2C)c1C,,inactive: 3.77%
Cc1cccc(N2CCN(Cc3nc(-c4cccc(Cl)c4)oc3C)CC2)n1,active: 7.08 µM,
CCOC(=O)c1cc2c(=O)n3ccccc3nc2n(CCCOC)c1=NC(=O)c1c(-c2c(F)cccc2Cl)noc1C,"inconclusive: 31.6 µM [activator, single point]",
Cc1cccc(COCC(Cc2ccccc2)N2CCN(C(=O)c3cccc(Cl)c3)CCC2=O)c1 (stereo not given),,inactive: -13%
NC(=O)c1ccc(NC(=O)COC(=O)CCCOc2ccccc2)cc1,"inconclusive: 35.5 µM [activator, single point]",
O=C(CN1C(=O)S/C(=C\c2ccccc2F)C1=O)NC1CCS(=O)(=O)C1 (stereo not given),,inactive: 3.33% [at 46.1 µM]
CCOc1ccc(Cl)cc1S(=O)(=O)N1CCC(C(=O)NCc2ccccn2)CC1,,inactive: 6.07% [at 46.1 µM]
CCOc1cc(/C=N\NC(=O)c2ccc(NC(=O)CC)cc2)ccc1OC(=O)c1ccccc1,"inconclusive: 16.4 µM [inhibitor, partial curve, poor fit]",
O=S(=O)(NC1CCCCC1Oc1ccccc1)c1ccc(Cl)cc1 (stereo not given),"inconclusive: 8.91 µM [inhibitor, partial curve, poor fit]",
O=C(/C=C/c1ccc(Cl)cc1)NCCc1ccccc1,"inconclusive: 35.5 µM [activator, single point]",
CCOc1ccc2[nH]c(=O)c(CN(CCCO)S(=O)(=O)c3ccc(F)cc3)cc2c1,"inconclusive: 22.4 µM [inhibitor, single point]",
COC(=O)c1ccccc1NC(=O)C1CC=CCC1C(=O)O (stereo not given),,inactive: 29.5%
COc1ccc(NC(=O)CCC(=O)NCCO)cc1,,inactive: 2.97% [at 46.1 µM]
Cc1ccccc1Cn1c(=O)n(Cc2ccco2)c(=O)c2sc3ccccc3c21,"inconclusive: 4.47 µM [inhibitor, partial curve, poor fit]",
O=C(c1ccc(Sc2cccc(Cl)c2)c([N+](=O)[O-])c1)N1CCN(c2ccccn2)CC1,"inconclusive: 35.5 µM [inhibitor, single point]",
COc1ccc(/C=N/NC(=O)c2ccncc2)cc1[N+](=O)[O-],"inconclusive: 7.3 µM [activator, partial curve, poor fit]",
CCN(c1cccc(C)c1)S(=O)(=O)c1ccc2c(c1)N(C(C)=O)CCS2,"inconclusive: 1.12 µM [inhibitor, full curve, poor fit]",
O=C(Nc1ccc(CCC(=O)N2CCCC2)cc1)c1ncn[nH]1,,inactive: 9.54% [at 46.1 µM]
COc1ccc(/C=C(\NC(=O)c2ccc(OC)c(OC)c2)C(=O)NCCc2c[nH]c3ccccc23)cc1,"inconclusive: 16.4 µM [activator, partial curve, poor fit]",

Structure (SMILES),Potency,"activity change, negative = inhibition"
NC(=O)COC(=O)c1ccc(-c2ccccc2)cc1,,inactive: 0.445% [at 46.1 µM]
CCc1ccccc1NC(=O)CN1CCN(C(=O)CNC(=O)c2ccc(N3CCCC3=O)cc2)CC1,"inconclusive: 0.316 µM [activator, full curve, poor fit]",
CCOc1cc2nc(-c3ccc(OC)c(OC)c3)nc(NCCCN3CCOCC3)c2cc1OC,"inconclusive: 14.1 µM [inhibitor, partial curve, poor fit]",
O=C(Nc1ccc(C(=O)Nc2ccccc2Cl)cc1)c1cccnc1,,inactive: 24.9% [at 46.1 µM]
Cc1ccc(NC(=O)CCN2CCC(C(N)=O)CC2)cc1,,inactive: 1.87% [at 46.1 µM]
S=C(NC1CCCCC1)N1CCN(C2CCCCC2)CC1,,inactive: 0.0646% [at 46.1 µM]
Cc1ccccc1N=Nc1c(C)[nH]n(C(N)=S)c1=O,,inactive: -1.15%
CCOc1ccc(-c2cc(C(=O)O)c3ccccc3n2)cc1,active: 20.6 µM,
O=C(NCc1ccc(F)cc1)C(c1ccccc1)N(C(=O)c1csnn1)c1ccccc1 (stereo not given),"inconclusive: 14.1 µM [inhibitor, partial curve, poor fit]",
O=C(Oc1cc(Cl)cc(Cl)c1)c1cnc2n(c1=O)CCS2,"inconclusive: 2.82 µM [inhibitor, partial curve, poor fit]",
O=c1c2ccccc2nnn1Cc1ccc(Br)cc1,"inconclusive: 28.2 µM [inhibitor, single point]",
CCCn1c(SCC(=O)NC2CCCCC2)nnc1-c1cccnc1,,inactive: -0.237% [at 46.1 µM]
COc1ccc(CNC(=O)COC(=O)/C=C/c2ccco2)cc1,,inactive: -1.05%
Cc1ccc(C)c(NS(=O)(=O)c2cc(C(=O)N3CCCC3)ccc2Cl)c1,"inconclusive: 5.62 µM [activator, single point]",
Cc1ccc(NC(C)C(=O)N/N=C/c2ccc([N+](=O)[O-])s2)cc1 (stereo not given),"inconclusive: 25.1 µM [inhibitor, partial curve, poor fit]",
CN(Cc1ccc(Cl)cc1Cl)C(=O)c1cccc(S(=O)(=O)NCc2ccccc2)c1,,inactive: -54.4%
Cc1ccccc1NCC(=O)N/N=C/c1ccc([N+](=O)[O-])cc1,"inconclusive: 5.62 µM [activator, single point]",
Cc1cc(C)nc(SCc2nnc(SCC(=O)N3CCCc4ccccc43)n2C)n1,,inactive: 8.78%
CCOC(=O)C(NCc1ccc(OC)cc1)(NC(C)=O)C(F)(F)F (stereo not given),"inconclusive: 3.16 µM [activator, single point]",
CCOC(=O)c1c(NC(=O)CSc2ncn[nH]2)sc(C)c1C,"inconclusive: 0.164 µM [activator, full curve, poor fit]",
COc1ccc(C2CC(=O)C3=C(C2)Nc2ncnn2C3c2ccccc2C)c(OC)c1 (stereo not given),"inconclusive: 23.1 µM [inhibitor, single point]",
COc1ccc(Cl)cc1NC(=O)CN(C)C(=O)C1COc2ccccc2O1 (stereo not given),,inactive: -12.2%

# Look-ups from the results shown.
# Cc1cccc(COCC(Cc2ccccc2)N2CCN(C(=O)c3cccc(Cl)c3)CCC2=O)c1 (stereo not given) | activity change, negative = inhibition: inactive: -13%
# O=C1CNC(=O)N1c1ccc(Cl)cc1 | Potency: inconclusive: 3.98 µM [inhibitor, partial curve, poor fit]
